In PubChem BioAssay AID1347131 (National Center for Advancing Translational Sciences (NCATS), 2019):
The campaign covered roughly 410,000 compounds. About 2,000 (0.49%) were called active. The inconclusive results got no clear call from the source; some entries with a clear call stand among them for comparison. Calls follow the shape of the full dose curve; tested in HEK293 reporter line. Where the call is inconclusive, the potency comes from a doubtful curve fit.
Potency is read from the fitted curve at half-maximal effect.

Assay: qHTS Assay for Foot and Mouth Disease Virus Antivirals: Primary Screen against the MLPCN compound library; also: nearly all actives have a fitted effect of over 55% in size
Settings: FMDV antiviral cell-based qHTS; activity, negative = inhibition: at 57.9 µM (top of the series)
In the case of CCCOC(=O)c1ccc(Oc2cn[nH]c2-c2ccc(OCC(=O)NN)cc2O)cc1, the Potency is reported as inconclusive: 10 µM [inhibitor, partial curve].
For CN1CCCN(C(=O)c2c(F)cccc2Cl)CC1, the Potency was inconclusive: 3.16 µM [inhibitor, full curve].
In the case of CCN(CC)S(=O)(=O)c1ccc2[nH]cc(C(=O)NCCC3=CCCCC3)c(=O)c2c1, the Potency is reported as inconclusive: 14.1 µM [inhibitor, partial curve, poor fit].
For CCOC(=O)COc1ccc(Br)cc1/C=C/c1[nH]c(=O)[nH]c(=O)c1[N+](=O)[O-], the Potency was inconclusive: 28.2 µM [inhibitor, partial curve, poor fit].
In the case of Cc1ccc(CS(=O)(=O)c2ncc(Cl)c(C(=O)Nc3nnc(C(C)C)s3)n2)cc1, the Potency is reported as inconclusive: 31.6 µM [inhibitor, partial curve, poor fit].
In the case of CC(C)C(OC(=O)c1cccc(S(=O)(=O)NCC(F)(F)F)c1)C(=O)NC(N)=O (stereo not drawn), the “activity, negative = inhibition” value is reported as inactive: 104%.
In the case of CCC(=O)N1CCc2cc(S(=O)(=O)NCCC(=O)N3CCN(c4ccccn4)CC3)ccc21, the Potency is reported as inconclusive: 17.8 µM [inhibitor, single point].
In the case of COCCn1c(C)cc(C(=O)COC(=O)c2cccnc2SC)c1C, the Potency is reported as inconclusive: 17.8 µM [inhibitor, single point].
For CN(C(=O)c1cnc(N2CCN(c3ncccn3)CC2)c2ccccc12)c1ccc(Cl)cc1, the Potency was inconclusive: 20 µM [inhibitor, partial curve, poor fit].
In the case of COc1ccccc1N1CCN(Cc2cc(=O)oc3cc(C)ccc23)CC1, the “activity, negative = inhibition” value is reported as inactive: -37.9%.
With Cc1ccc(NC(=O)c2ccc(NCCCN3CCOCC3)c([N+](=O)[O-])c2)cc1Cl the Potency was inconclusive: 31.6 µM [inhibitor, partial curve, poor fit].
In the case of O=C(c1ccc(N2CCN(C(=O)c3cccc(F)c3)CC2)cc1)c1cccc(F)c1, the Potency is reported as inconclusive: 20 µM [inhibitor, partial curve, poor fit].
For O=C(CCS(=O)(=O)c1ccccc1)N(CCCN1CCOCC1)c1nc2c(F)cccc2s1, the Potency was inconclusive: 39.8 µM [inhibitor, partial curve, poor fit].
With C/C(=N\NC(=O)c1cc(-c2cccs2)nc2ccccc12)c1ccccn1 the “activity, negative = inhibition” value was inactive: -31.1%.
With CS(=O)(=O)c1ncc(Cl)c(C(=O)Nc2ccc3ccccc3c2)n1 the Potency was inconclusive: 12.6 µM [inhibitor, partial curve, poor fit].
With N#Cc1ccc(/C=C/C(=O)c2cccnc2)cc1 the Potency was inconclusive: 39.8 µM [inhibitor, partial curve, poor fit].
For COc1cc(/C=C/C(=O)C2C(=O)C=C(C)OC2=O)cc(OC)c1O (stereo not drawn), the Potency was inconclusive: 17.8 µM [inhibitor, partial curve, poor fit].
With COc1cccc(N2C(=O)C3C(C2=O)C3(c2ccccc2)c2ccccc2)c1 (stereo not drawn) the Potency was active: 14.1 µM.
For Cc1ccc(N(CCC#N)C(=O)CCl)cc1C, the Potency was inconclusive: 28.2 µM [inhibitor, partial curve, poor fit].
With C=CCn1c(SCC(=O)Nc2nc3ccccc3s2)nnc1-c1ccccc1O the Potency was active: 25.1 µM.
With CC1(C)C(=O)C=CC(=O)C(C)(C)C(=O)C=CC(=O)C(C)(C)C2=CC=C(O2)C(C)(C)C(=O)C=CC1=O the Potency was inconclusive: 7.94 µM [inhibitor, full curve, poor fit].
With Cc1ccc(Cn2ncc3c(N4CCN(CC#N)CC4)ncnc32)cc1 the Potency was inconclusive: 31.6 µM [inhibitor, partial curve, poor fit].
For Cc1cc(OCC(=O)OCC(=O)NCc2ccco2)ccc1Cl, the Potency was inconclusive: 7.94 µM [inhibitor, partial curve].
For CCOC(=O)[C@H]1[C@H]2COc3ccc(Br)cc3[C@@H]2N2C(=O)CN(Cc3ccc(Cl)cc3)C(=O)[C@@]12C, the Potency was inconclusive: 25.1 µM [inhibitor, partial curve, poor fit].
In the case of Cc1cc2nc(N3C(=O)CNC3=S)sc2cc1C, the Potency is reported as active: 20 µM.
With CC(Oc1ccccc1)C(=O)Nc1ccc(C(=O)OCc2cc(=O)n3nc(C4CC4)sc3n2)cc1 (stereo not drawn) the Potency was inconclusive: 28.2 µM [inhibitor, partial curve, poor fit].
With N#Cc1nc(Nc2cccc(Cl)c2)c2ncn(C3CCCC3)c2n1 the Potency was inconclusive: 14.1 µM [inhibitor, single point].
For C#CCOCCOCCOCCNc1nc(N2CCN(C(=O)CCCCCCCCCCNC(=O)[C@H]([C@@H](C)CC)n3cc(CCCCN=C(N)N)nn3)CC2)nc(N2CCN(C(=O)CCCCCCCCCCNC(=O)[C@H](CCCCN)n3cc(C)nn3)CC2)n1, the Potency was inconclusive: 35.5 µM [inhibitor, partial curve, poor fit].
For Cc1cc(C)c(C)c(S(=O)(=O)N2CCN(c3ncnc4ccccc34)CC2)c1C, the Potency was inconclusive: 15.8 µM [inhibitor, partial curve, poor fit].
With COc1cc(CNCCCCO)ccc1OCc1ccccc1F the Potency was inconclusive: 22.4 µM [inhibitor, partial curve, poor fit].
In the case of COc1ccc(C2C3C=CCC(c4cccc(-c5ccc(C)cc5)c4)C3C(=O)N2Cc2ccccc2)cc1Cl (stereo not drawn), the Potency is reported as active: 12.6 µM.
With CCN=c1scc(-c2cccs2)n1/N=C/c1cc(OC)ccc1O the Potency was inconclusive: 14.1 µM [inhibitor, single point].
For Cc1nn2c(-n3ccnc3)c3c(nc2c1-c1ccccc1)CCC3, the Potency was inconclusive: 25.1 µM [inhibitor, partial curve, poor fit].
With O=C1C(Cl)=C(Nc2ccccc2)C(=O)c2ccccc21 the Potency was inconclusive: 39.8 µM [inhibitor, partial curve, poor fit].
For O=C(Nc1ccc(Br)cc1)c1ccc2ncsc2c1, the Potency was inconclusive: 17.8 µM [inhibitor, single point].
For Cc1cc(C(=O)CCl)c(C)n1CCc1ccc(F)cc1, the Potency was inconclusive: 28.2 µM [inhibitor, partial curve, poor fit].
For CCOC(=O)c1ccc(N2C(=O)c3[nH]nc(-c4ccc(OC)cc4)c3C2c2cccc(O)c2)cc1 (stereo not drawn), the Potency was inconclusive: 31.6 µM [inhibitor, single point].
With CC(=O)c1ccc(C(=O)N2CCC(CO)(Cc3cccc(C(F)(F)F)c3)CC2)cc1 the Potency was inconclusive: 25.1 µM [inhibitor, partial curve, poor fit].
In the case of CCOC(=O)c1cnc2c(OC)cccc2c1N1CCN(c2ccccn2)CC1, the Potency is reported as inconclusive: 31.6 µM [inhibitor, partial curve, poor fit].
In the case of COc1ccc(OC)c(S(=O)(=O)N2CCC(C(=O)Nc3ccc(C)c(C)c3)CC2)c1, the Potency is reported as inconclusive: 25.1 µM [inhibitor, partial curve, poor fit].
With COCc1[nH]nc2c1C(c1ccc(F)cc1F)C(C#N)=C(N)O2 (stereo not drawn) the Potency was inconclusive: 31.6 µM [inhibitor, partial curve, poor fit].
For CCN1CCN(C(=O)c2ccc(NS(=O)(=O)c3ccccc3)cc2)CC1, the Potency was “inactive”.
For COc1cc(C(=S)N2CCOCC2)ccc1OC(=O)c1ccccc1C, the Potency was inconclusive: 7.08 µM [inhibitor, full curve].
In the case of O=C(CCl)N(CCCNC(=O)C(F)(F)F)c1ccc([N+](=O)[O-])cc1, the Potency is reported as inconclusive: 20 µM [inhibitor, partial curve, poor fit].
For COc1cccc(/C=N/NC(=O)CSc2nnc(C)n2-c2ccccc2)c1OC, the “activity, negative = inhibition” value was inactive: -35.1%.
With CCC(=O)N(Cc1ccc2c(c1)OCO2)Cc1cc2cc(OC)ccc2[nH]c1=O the “activity, negative = inhibition” value was inactive: -31.5%.
For COc1ccc(/C=N/NC(=O)c2ccc(O)cc2)cc1CN1CCCc2ccccc21, the Potency was inconclusive: 39.8 µM [inhibitor, partial curve, poor fit].
For CN(C)S(=O)(=O)c1ccc(NC(=O)CN2CCCCCC2)cc1, the Potency was inconclusive: 2.51 µM [inhibitor, full curve].
In the case of FC(F)(F)c1ccccc1-n1c(-c2cnccn2)n[nH]c1=S, the Potency is reported as inconclusive: 17.8 µM [inhibitor, partial curve].
With COc1ccc(C(=O)NCCn2cc(SCc3cccc(F)c3)c3ccccc32)cc1OC the Potency was inconclusive: 17.8 µM [inhibitor, partial curve, poor fit].
In the case of COc1ccc(-c2nc3ccccc3s2)cc1O, the Potency is reported as inconclusive: 22.4 µM [inhibitor, single point].
For CC[n+]1ccc(/C=C/c2ccc(N(C)C)cc2)c2ccccc21, the Potency was inconclusive: 17.8 µM [inhibitor, partial curve, poor fit].
With O=C(Nc1nc(-c2ccccc2)cs1)c1ccc2c(=O)n3c(nc2c1)CCCCC3 the Potency was inconclusive: 15.8 µM [inhibitor, partial curve, poor fit].
In the case of COc1ccc(N(C(=O)CCl)C(C(=O)NCCc2ccccc2)c2cccs2)cc1Cl (stereo not drawn), the Potency is reported as inconclusive: 20 µM [inhibitor, partial curve, poor fit].
For COc1cccc(N2CCN(c3c4c(nc5nncn35)CCC4)CC2)c1, the Potency was active: 14.1 µM.
In the case of COc1ccc(C(=O)NCC(=O)N2CC=C(c3ccccc3)CC2)cc1OC, the “activity, negative = inhibition” value is reported as inactive: -35.2%.
With Cc1c(C(=O)Nc2ccncc2)sc2nc(-c3ccccc3)cn12 the Potency was inconclusive: 20 µM [inhibitor, partial curve, poor fit].
With O=C(C=P(c1ccccc1)(c1ccccc1)c1ccccc1)c1ccccc1-c1ccccc1C(=O)C=P(c1ccccc1)(c1ccccc1)c1ccccc1 the Potency was inconclusive: 20 µM [inhibitor, partial curve, poor fit].
